# Source: PubChem BioAssay AID540256 (National Center for Advancing Translational Sciences (NCATS), 2011)
# Where “and” joins values, the source holds several entries; their conditions need not be identical. Equal values may be shown once. The campaign covered roughly 300,000 compounds. About 3,700 (1.2%) were called active. The shares of active, inactive and inconclusive entries below differ from those in the screen. Calls follow the shape of the full dose curve; tested in HEK293 cells. Potencies of inconclusive entries are doubtful fits and often do not repeat.
# Assay: qHTS for Inhibitors of binding or entry into cells for Lassa Virus; also: nearly all actives have a fitted effect of over 50% in size
# Conditions: Lassa virus pseudotype entry inhibition, cell reporter; activity change, negative = inhibition: at 37.9 µM (top of the series) unless noted
# % is scaled to controls: 0 for no effect and ±100 for the full control effect; potency is read from the fitted curve at half-maximal effect.
Compound,"activity change, negative = inhibition",Potency
Cc1cc(NC(=O)C(C)(C)C)cc(-c2nc3ncccc3o2)c1O,inactive: -1.27% [at 46.1 µM],
COc1ccc(OCC(=O)NCC(c2ccc(OC)cc2)N2CCOCC2)cc1 (stereo not drawn),,"inconclusive: 3.16 µM [inhibitor, single point]"
CC(=O)c1c(C)[nH]c(C(=O)NCc2ccccc2Cl)c1C,inactive: 5.36%,
CC1(C)Cc2c(sc3[nH]c(=S)n(Cc4ccco4)c(=O)c23)CO1,,"inconclusive: 7.3 µM [inhibitor, partial curve, poor fit]"
O=C(Nc1cc(Cl)cc2c1-c1ccc(Cl)cc1C2O)C(Cl)Cl (stereo not drawn),,active: 12.6 µM
Cc1ccc(OCC(=O)N2CCN(c3nnc(-c4ccc(C)cc4)c4ccccc34)CC2)cc1,,"inconclusive: 29.1 µM [inhibitor, single point]"
CC(NCc1ccccc1OC1CCCC1)c1ccccc1 (stereo not drawn),,"inconclusive: 28.2 µM [inhibitor, single point]"
CC1CCCC(C)N1CCCNC(=O)C1CCCN(c2ncnc3c2nc2n3CCCCC2)C1 (stereo not drawn),,"inconclusive: 35.5 µM [activator, single point]"
COc1ccc(C(=O)Nc2nnc(Cc3ccc(OC)c(OC)c3)s2)c(OC)c1,,"inconclusive: 35.5 µM [activator, single point]"
CC(C)c1ccc(C(C)NCCS(=O)(=O)c2ccc(Cl)cc2)cc1 (stereo not drawn),,"inconclusive: 1.12 µM [inhibitor, full curve, poor fit]"
CCN(C(=O)CCc1nc(-c2ccc(OC)cc2)no1)c1cc(OC)ccc1OC,,"inconclusive: 25.1 µM [inhibitor, single point]"
COc1cc2c(cc1OC)/C(=C/C(=O)c1ccc(NC(C)=O)cc1)NCC2,,"inconclusive: 1 µM [inhibitor, full curve, poor fit]"
CCOc1ccc(-n2nc(CO)c(C(=O)NCC(C)O)n2)cc1 (stereo not drawn),inactive: 3.36% [at 46.1 µM],
COc1ccc(S(=O)(=O)Nc2cccc(C(C)=O)c2)cc1Br,,"inconclusive: 0.562 µM [inhibitor, full curve, poor fit]"
O=C(NCCCN1CCOCC1)c1ccccc1-c1ccccc1,,"inconclusive: 0.708 µM [activator, full curve, poor fit]"
COc1cc(NC(=O)C2Cc3ccccc3N2C(=O)c2ccccc2)cc(OC)c1 (stereo not drawn),inactive: -8.57% [at 46.1 µM],
COC(=O)CCCCCCCCC(O)CN1CCCCC1 (stereo not drawn),,"inconclusive: 0.231 µM [inhibitor, single point]"
CC(C)n1nnnc1SCC(=O)Nc1ccc2c(c1)OCO2,,"inconclusive: 32.6 µM [activator, partial curve, poor fit]"
COCCNc1c(-c2ccc(OC)cc2)nc2ccc(Cl)cn12,,"inconclusive: 25.1 µM [inhibitor, single point]"
COc1ccc(C(=O)NC(=S)NCc2ccccc2)cc1OC,,"inconclusive: 1.41 µM [inhibitor, full curve, poor fit]"
Cc1cccc(C(=O)NNc2ncnc3c2cnn3-c2ccc(C)c(Cl)c2)c1,,"inconclusive: 12.6 µM [activator, partial curve]"
Cn1c(SCC(=O)Nc2ccc3c(c2)OCCO3)nnc1-c1ccncc1,inactive: 0.281%,
Cc1ccc(-c2nc(CS(=O)CC(=O)NCCc3ccc(Cl)cc3)c(C)o2)cc1 (stereo not drawn),,"inconclusive: 2.82 µM [inhibitor, full curve, poor fit]"

Compound,"activity change, negative = inhibition",Potency
COc1ccc(CN2CCSCC2)c(C)c1C,inactive: -1.19%,
COCCCNC(=O)/C=C/c1ccc(OCc2c(F)cccc2Cl)cc1,,"inconclusive: 11.2 µM [inhibitor, partial curve, poor fit]"
Cc1cc(NC(=O)c2cc(-c3cccs3)on2)no1,inactive: -14.5%,
COc1cc(-c2c(C#N)c(N)nc(SCc3ccncc3)c2C#N)cc(OC)c1OC,,"inconclusive: 29.1 µM [inhibitor, single point]"
O=C(COc1ccc(Cl)cc1Cl)Nc1ccccn1,,active: 0.517 µM
CCOc1ccccc1Nc1sc(C(=O)c2ccc(Cl)cc2)c(N)c1S(=O)(=O)c1ccccc1,,"inconclusive: 25.1 µM [inhibitor, single point]"
FC(F)(F)c1ccc(Nc2nnnc3ccccc23)cc1,inactive: 1.7% [at 46.1 µM],
COc1cccc(OC)c1OCCOc1ccc(C(=O)c2ccccc2)cc1,,"inconclusive: 16.4 µM [inhibitor, partial curve, poor fit]"
Cc1ccccc1NC(=O)C(=Cc1ccc(C(=O)O)cc1)C(=O)Nc1ccccc1C,,"inconclusive: 10 µM [inhibitor, partial curve, poor fit]"
CSc1ncc(Cl)c(C(=O)NCc2ccc3c(c2)OCO3)n1,,"inconclusive: 1 µM [activator, full curve, poor fit]"
CCc1cc2c(-c3ccccc3)cc(=O)oc2c(CN2CCOCC2)c1O,,"inconclusive: 3.55 µM [activator, partial curve, poor fit]"
CN=c1sc(C(=O)Nc2cccc(Cl)c2)cc(=O)n1C,,"inconclusive: 29.1 µM [inhibitor, partial curve, poor fit]"
CC1CC(C)CN(C(=O)c2ccc(CSc3nc4ccncc4[nH]3)cc2)C1 (stereo not drawn),,"inconclusive: 32.6 µM [inhibitor, single point]"
OCCNCc1cc(Br)ccc1OCc1ccc(Cl)cc1Cl,,active: 11.2 µM
O=C(NCCCCCCCN1CCCCCCC1)C(C1CCCCC1)C1CCCCC1,,"inconclusive: 17.8 µM [inhibitor, single point]"
CCOc1ccc(-c2cc(C(=O)O)c3ccccc3n2)c(OCC)c1,,"inconclusive: 18.3 µM [inhibitor, single point]"
O=C(NCc1ccc(F)cc1)C1CCN(C(=O)Nc2ccc(F)cc2)CC1,,"inconclusive: 1.12 µM [activator, single point]"
Cc1nc2ncnn2c(C)c1CCC(=O)O,,"inconclusive: 10 µM [activator, partial curve]"
Cc1ccc(NC(=O)Cn2c(=O)n(CCCCC(=O)NCc3ccc4c(c3)OCO4)c(=O)c3ccccc32)cc1,,"inconclusive: 22.4 µM [activator, single point]"
CCc1ccc(NC(=O)COc2coc(CN3CCN(c4ccccc4)CC3)cc2=O)cc1,inactive: 8.07%,
COc1ccc(CN2CCN(Cc3ccc4cc(F)ccc4n3)CC2CCO)c(C)c1C (stereo not drawn),,"inconclusive: 10 µM [inhibitor, partial curve, poor fit]"
CCOc1ccccc1CNS(=O)(=O)c1cc(-c2onc(C)c2C)ccc1OC,inactive: -15.4% [at 46.1 µM],
CCC(=NCCN1CCOCC1)c1c(O)n(C2CCCCC2)c(=O)[nH]c1=O,,"inconclusive: 14.1 µM [inhibitor, partial curve, poor fit]"

# Quoted at random: 2 compounds from above
Compound,"activity change, negative = inhibition",Potency
COc1cc(-c2c(C#N)c(N)nc(SCc3ccncc3)c2C#N)cc(OC)c1OC,,"inconclusive: 29.1 µM [inhibitor, single point]"
CC(=O)c1c(C)[nH]c(C(=O)NCc2ccccc2Cl)c1C,inactive: 5.36%,

# 3 structures out of the list, arranged by heavy-atom count, low to high.
Compound,"activity change, negative = inhibition",Potency
OCCNCc1cc(Br)ccc1OCc1ccc(Cl)cc1Cl,,active: 11.2 µM
COc1cc(-c2c(C#N)c(N)nc(SCc3ccncc3)c2C#N)cc(OC)c1OC,,"inconclusive: 29.1 µM [inhibitor, single point]"
COc1ccc(CN2CCN(Cc3ccc4cc(F)ccc4n3)CC2CCO)c(C)c1C (stereo not drawn),,"inconclusive: 10 µM [inhibitor, partial curve, poor fit]"

# Remaining list, next part

Compound,"activity change, negative = inhibition",Potency
Cc1ccc(NC(=O)c2c(C(F)(F)F)nn(C)c2Cl)cc1C,inactive: 3.37%,
COc1ccc(Cn2nnnc2C(c2cccs2)N2CCN(c3ccccc3)CC2)cc1 (stereo not drawn),,"inconclusive: 2.91 µM [inhibitor, full curve, poor fit]"
COc1ccc(C2=Nn3c(nnc3-c3ccccn3)SC2)cc1,inactive: -6.07%,
O=C(COC(=O)c1c(F)cccc1Cl)NC1CCCCC1,,"inconclusive: 35.5 µM [inhibitor, single point]"
O=C(CN(C(=O)c1ccccc1)N1C(=O)CCC1=O)c1cccs1,inactive: 3.72%,
Cc1cccc(CN2CCN(C(c3ccccc3)c3ccc(Cl)cc3)CC2)c1 (stereo not drawn),inactive: -28.9%,
Cc1ccc(Cl)cc1N1CCN(C(=O)CCS(=O)(=O)c2ccc3c(c2)oc(=O)n3C)CC1,inactive: -8.88% [at 46.1 µM],
COc1ccc(COC(=O)N/N=C(\C)CC(=O)Nc2ccc(Cl)cc2)cc1,,active: 0.141 µM
O=C(O)c1cccc(N/N=C/c2cccc3ccccc23)c1,,"inconclusive: 7.08 µM [inhibitor, partial curve, poor fit]"
CCOc1ccc(CNCc2c(C(=O)O)n(Cc3ccccc3C)c3cc(OC)ccc23)cc1OC,,"inconclusive: 2 µM [activator, single point]"
CCCNS(=O)(=O)c1cccc(C(=O)NC2CCCc3ccccc32)c1 (stereo not drawn),,active: 18.3 µM
O=C(CCc1nnc(Cc2cccc(C(F)(F)F)c2)o1)NCC(F)(F)F,inactive: 26.8%,
COC(=O)N/N=C1\CCCc2c(C)cc(C)cc21,,"inconclusive: 4.47 µM [inhibitor, single point]"
CCCCn1c(O)c(C(=O)/C=C/c2ccc3c(c2)OCO3)c(=O)[nH]c1=O,,"inconclusive: 7.08 µM [inhibitor, partial curve, poor fit]"
O=C(Cn1c(O)c(/C=C2\C=Nc3ccc(Br)cc32)sc1=O)N1CCCC1,,"inconclusive: 14.6 µM [inhibitor, partial curve, poor fit]"
CCCCCCCC(=O)Oc1ccc(C(=O)Nc2cc(C)on2)cc1,,"inconclusive: 3.16 µM [activator, single point]"
CC(=O)N(/N=C1\Sc2ccccc2C1=O)c1cccc(C)c1,,"inconclusive: 35.5 µM [inhibitor, single point]"
CCC(C(=O)NC1CCCCC1)n1c(SCc2cccc(F)c2)nc2ccncc21 (stereo not drawn),,"inactive and inconclusive: 18.4 µM [inhibitor, partial curve, poor fit]"
CCOc1ccc(/C=N/N(C)c2ccccc2)cc1OC,,"inconclusive: 35.5 µM [inhibitor, single point]"
Cc1ccc(S(=O)(=O)C(CNS(=O)(=O)c2ccc(F)c(C(F)(F)F)c2)c2ccco2)cc1 (stereo not drawn),inactive: -14.8% [at 46.1 µM],
CCn1c(/C=C/c2ccccc2F)nc2ccccc2c1=O,,"inconclusive: 0.316 µM [inhibitor, full curve, poor fit]"
O=C(NCCc1ccccc1)c1cnc2ccccn2c1=O,,"inconclusive: 16.4 µM [inhibitor, single point]"
